Results published in paper PMC9204904.
These are yes or no findings as the source states them, for the method shown. In cells and extracts the contact can be indirect. Some binding calls cover weakened binding; strength is not graded here.

The chains behind the UniProt entries cited, without tags or fusion partners. Residues count along the entry.
UniProt P06213, residues 28-1382: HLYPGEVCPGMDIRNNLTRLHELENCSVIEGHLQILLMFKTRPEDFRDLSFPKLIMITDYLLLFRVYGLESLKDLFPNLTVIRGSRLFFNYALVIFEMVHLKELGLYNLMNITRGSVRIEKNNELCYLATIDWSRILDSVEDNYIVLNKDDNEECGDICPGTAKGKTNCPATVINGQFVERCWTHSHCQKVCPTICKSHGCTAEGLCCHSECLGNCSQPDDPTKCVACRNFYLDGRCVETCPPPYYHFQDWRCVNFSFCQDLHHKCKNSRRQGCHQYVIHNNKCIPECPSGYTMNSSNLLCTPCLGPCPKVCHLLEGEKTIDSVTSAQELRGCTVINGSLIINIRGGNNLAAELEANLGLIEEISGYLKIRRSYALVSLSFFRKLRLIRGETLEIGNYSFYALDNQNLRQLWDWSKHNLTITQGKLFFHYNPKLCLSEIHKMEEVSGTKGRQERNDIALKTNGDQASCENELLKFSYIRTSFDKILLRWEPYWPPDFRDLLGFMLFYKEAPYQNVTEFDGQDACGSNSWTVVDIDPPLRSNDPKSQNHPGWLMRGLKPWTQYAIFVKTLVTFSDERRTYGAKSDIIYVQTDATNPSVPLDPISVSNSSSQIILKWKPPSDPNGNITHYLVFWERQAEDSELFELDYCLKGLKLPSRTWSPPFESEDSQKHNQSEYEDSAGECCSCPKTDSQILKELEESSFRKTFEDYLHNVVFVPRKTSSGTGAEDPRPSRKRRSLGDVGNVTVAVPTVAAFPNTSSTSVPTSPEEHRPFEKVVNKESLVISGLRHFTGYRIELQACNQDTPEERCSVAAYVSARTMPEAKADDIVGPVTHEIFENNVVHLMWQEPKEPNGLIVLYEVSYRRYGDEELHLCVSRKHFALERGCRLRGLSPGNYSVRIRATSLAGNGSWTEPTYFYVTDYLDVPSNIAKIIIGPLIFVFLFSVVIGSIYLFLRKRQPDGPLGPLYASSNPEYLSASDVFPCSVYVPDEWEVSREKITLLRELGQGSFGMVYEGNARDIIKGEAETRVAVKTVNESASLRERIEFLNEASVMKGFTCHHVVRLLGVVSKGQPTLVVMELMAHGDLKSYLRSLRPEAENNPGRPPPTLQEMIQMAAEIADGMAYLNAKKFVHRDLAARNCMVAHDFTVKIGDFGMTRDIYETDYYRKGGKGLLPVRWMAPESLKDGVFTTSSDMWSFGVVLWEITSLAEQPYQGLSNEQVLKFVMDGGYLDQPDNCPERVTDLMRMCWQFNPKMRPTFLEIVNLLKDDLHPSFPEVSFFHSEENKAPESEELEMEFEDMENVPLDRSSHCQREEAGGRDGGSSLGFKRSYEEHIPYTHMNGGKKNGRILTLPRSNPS
UniProt P46934: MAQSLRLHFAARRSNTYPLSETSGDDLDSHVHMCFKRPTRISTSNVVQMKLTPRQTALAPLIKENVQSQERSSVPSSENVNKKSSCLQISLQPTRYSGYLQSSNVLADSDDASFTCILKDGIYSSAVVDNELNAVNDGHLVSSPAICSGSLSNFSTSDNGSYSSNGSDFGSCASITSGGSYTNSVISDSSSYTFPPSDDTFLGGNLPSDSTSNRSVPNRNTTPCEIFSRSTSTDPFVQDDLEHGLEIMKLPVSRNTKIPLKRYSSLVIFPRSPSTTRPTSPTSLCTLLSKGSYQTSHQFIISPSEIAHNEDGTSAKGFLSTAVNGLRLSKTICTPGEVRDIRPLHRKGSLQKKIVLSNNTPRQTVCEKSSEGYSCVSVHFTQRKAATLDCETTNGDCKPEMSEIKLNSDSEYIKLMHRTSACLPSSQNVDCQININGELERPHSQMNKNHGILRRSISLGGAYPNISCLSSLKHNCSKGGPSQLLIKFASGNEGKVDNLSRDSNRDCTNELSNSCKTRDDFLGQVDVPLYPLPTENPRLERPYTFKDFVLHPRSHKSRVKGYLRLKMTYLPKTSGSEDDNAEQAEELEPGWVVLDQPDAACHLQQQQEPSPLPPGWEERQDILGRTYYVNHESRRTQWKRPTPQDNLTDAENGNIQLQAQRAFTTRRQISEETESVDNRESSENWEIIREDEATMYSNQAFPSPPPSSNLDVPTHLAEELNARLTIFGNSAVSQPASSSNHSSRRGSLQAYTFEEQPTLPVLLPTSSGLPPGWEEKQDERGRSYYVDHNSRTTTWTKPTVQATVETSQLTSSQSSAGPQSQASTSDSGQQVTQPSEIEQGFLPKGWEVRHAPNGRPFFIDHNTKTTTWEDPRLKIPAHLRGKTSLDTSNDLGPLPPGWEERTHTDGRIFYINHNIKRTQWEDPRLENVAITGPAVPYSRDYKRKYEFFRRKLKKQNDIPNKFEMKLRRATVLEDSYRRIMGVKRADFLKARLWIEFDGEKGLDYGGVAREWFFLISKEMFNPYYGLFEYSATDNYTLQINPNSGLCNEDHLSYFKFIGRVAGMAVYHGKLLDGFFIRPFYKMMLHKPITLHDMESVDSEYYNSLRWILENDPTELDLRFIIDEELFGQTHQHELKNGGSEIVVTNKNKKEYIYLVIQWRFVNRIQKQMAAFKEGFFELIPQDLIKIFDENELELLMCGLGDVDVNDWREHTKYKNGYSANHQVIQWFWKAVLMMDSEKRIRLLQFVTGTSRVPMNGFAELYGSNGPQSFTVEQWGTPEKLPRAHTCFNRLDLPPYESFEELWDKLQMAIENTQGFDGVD
UniProt P08069, residues 31-1367: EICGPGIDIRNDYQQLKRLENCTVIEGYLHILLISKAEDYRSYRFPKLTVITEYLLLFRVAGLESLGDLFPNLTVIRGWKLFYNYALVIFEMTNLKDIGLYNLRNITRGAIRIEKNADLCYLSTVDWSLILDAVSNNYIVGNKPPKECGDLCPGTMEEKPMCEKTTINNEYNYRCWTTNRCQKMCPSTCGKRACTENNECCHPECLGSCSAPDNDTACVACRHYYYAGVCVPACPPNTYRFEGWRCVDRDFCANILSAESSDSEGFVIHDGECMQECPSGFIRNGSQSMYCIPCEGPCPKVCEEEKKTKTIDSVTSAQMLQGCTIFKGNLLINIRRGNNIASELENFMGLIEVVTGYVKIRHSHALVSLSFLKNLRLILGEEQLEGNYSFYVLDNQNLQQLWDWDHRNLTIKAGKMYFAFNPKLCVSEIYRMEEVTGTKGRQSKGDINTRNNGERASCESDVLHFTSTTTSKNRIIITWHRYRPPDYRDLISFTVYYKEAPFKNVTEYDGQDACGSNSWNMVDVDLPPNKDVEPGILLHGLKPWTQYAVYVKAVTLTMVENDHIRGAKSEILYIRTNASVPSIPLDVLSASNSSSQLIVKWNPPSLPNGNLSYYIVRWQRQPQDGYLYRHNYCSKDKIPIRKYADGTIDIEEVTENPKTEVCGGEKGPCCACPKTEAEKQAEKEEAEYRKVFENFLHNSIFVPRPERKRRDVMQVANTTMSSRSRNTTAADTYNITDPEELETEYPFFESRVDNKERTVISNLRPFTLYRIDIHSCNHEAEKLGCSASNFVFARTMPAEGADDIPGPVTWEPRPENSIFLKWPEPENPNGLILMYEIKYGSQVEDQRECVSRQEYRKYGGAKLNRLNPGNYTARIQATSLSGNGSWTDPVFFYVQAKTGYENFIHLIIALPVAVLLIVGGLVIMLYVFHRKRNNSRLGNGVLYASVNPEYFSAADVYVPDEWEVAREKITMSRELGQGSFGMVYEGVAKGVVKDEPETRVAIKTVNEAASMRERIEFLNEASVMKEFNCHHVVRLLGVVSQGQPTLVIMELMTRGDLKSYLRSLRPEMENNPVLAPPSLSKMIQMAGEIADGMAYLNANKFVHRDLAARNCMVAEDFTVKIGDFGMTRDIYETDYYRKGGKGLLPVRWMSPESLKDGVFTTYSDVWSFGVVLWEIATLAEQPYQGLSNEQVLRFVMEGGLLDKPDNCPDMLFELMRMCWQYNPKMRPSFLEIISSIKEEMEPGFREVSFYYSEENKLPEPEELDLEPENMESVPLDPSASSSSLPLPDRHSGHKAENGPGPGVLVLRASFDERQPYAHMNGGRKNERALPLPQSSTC

Experiments:
Experiment in all cases: co-IP; co-immunoprecipitation (Fig. 1O); cells, bait and antibodies are not told in the shown text
[1] = biological target: Insulin receptor (UniProt P06213)
[2] = biological target: Neural precursor cell expressed developmentally downregulated protein 4-1 (UniProt P46934)
[3] = biological target: Insulin-like growth factor 1 receptor (UniProt P08069)

B1: Transcriptional regulator interacting with the PHD-bromodomain 1 (protein, UniProt Q9UHV2 1-236)
chain: MLSKGLKRKREEEEEKEPLAVDSWWLDPGHTAVAQAPPAVASSSLFDLSVLKLHHSLQQSEPDLRHLVLVVNTLRRIQASMAPAAALPPVPSPPAAPSVADNLLASSDAALSASMASLLEDLSHIEGLSQAPQPLADEGPPGRSIGGAAPSLGALDLLGPATGCLLDDGLEGLFEDIDTSMYDNELWAPASEGLKPGPEDGPGKEEAPELDEAELDYLMDVLVGTQALERPPGPGR
With B1 the binding [1] was “no binding”, the binding [2] was “binds” and the binding [3] was “binds”.
